Data from publication PMC7819943, “Rice protein-binding microarrays: a tool to detect cis-acting elements near promoter regions in rice”.
Some of the results follow.

Each sequence was assayed against T1, OsSMF1 (Oryza sativa, UniProt Q6ZLB0 1-436) (assay: protein-binding microarray (RPBM); PBS, 2% BSA, 51.3 ng/ul salmon testes DNA, 50 uM zinc acetate, 200 nM TF, 25 C, 1 h; high values mean tight binding). Conditions: protein: recombinant; tags: N-terminal polyhistidine and DsRed monomer fusion (pET32a); chain copies: 2; label: CyDye5-dUTP incorporated in the synthesized complementary strand; 3' TTTTT single-stranded linker to array surface; dsDNA, one strand shown.
T1 sequence: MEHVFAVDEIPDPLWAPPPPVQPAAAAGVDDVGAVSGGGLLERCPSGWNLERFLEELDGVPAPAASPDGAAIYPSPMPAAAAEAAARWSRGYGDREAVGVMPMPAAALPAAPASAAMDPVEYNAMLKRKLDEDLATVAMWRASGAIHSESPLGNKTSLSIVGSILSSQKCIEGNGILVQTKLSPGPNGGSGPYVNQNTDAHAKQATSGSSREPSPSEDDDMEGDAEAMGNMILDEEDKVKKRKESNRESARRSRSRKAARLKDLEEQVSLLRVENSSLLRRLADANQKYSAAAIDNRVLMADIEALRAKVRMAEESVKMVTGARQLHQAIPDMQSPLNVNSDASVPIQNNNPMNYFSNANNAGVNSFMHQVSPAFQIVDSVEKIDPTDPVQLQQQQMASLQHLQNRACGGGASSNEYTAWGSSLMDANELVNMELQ
Procedure, shortened: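 Polyhistidine-tagged DsRed fusions of transcription factors, joined at the N-terminus, were expressed in E. coli BL21-CodonPlus and isolated on Ni–NTA. They were incubated at 200 nM for 1 h at 25 °C on a custom Agilent array, double-stranded and BSA-blocked, in PBS with 2% BSA, salmon testes DNA and 50 µM zinc acetate. The binding signal is per-feature fluorescence intensity (arbitrary units) read on an Axon 4000B scanner after washing.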
For “TCGAGCCGCGCACGCTGGAGGAGGCCCTCGTTCCGCGCGTCGGAGTCACCTAGTGCAG”, the binding signal was 3380 fluorescence intensity (a.u.). With “GCTGGTTCGTGCGTCCTTTGTATGTGACATGTTTGGGGAGCGGAGTCACCTAGTGCAG” the binding signal was 3160 fluorescence intensity (a.u.). For “GCCGAGGCCTGCTCAGTGGACACCACCAGCAAAGCAAGGGCGGAGTCACCTAGTGCAG”, the binding signal was 3870 fluorescence intensity (a.u.). “TTCTTAATTGTTCGGCTAAGCCAAACACCTAAAACGAACGCGGAGTCACCTAGTGCAG” was tested, and the binding signal was 4680 fluorescence intensity (a.u.). For “TCTCTTCACACCATCACATGTAGTGCGTGTACTCCTAGAGCGGAGTCACCTAGTGCAG”, the binding signal was 3800 fluorescence intensity (a.u.). In the case of “TAATAATAACTTTTATTTTATTTGATTTTAATATCTTGCACGGAGTCACCTAGTGCAG”, the binding signal is reported as 27500 fluorescence intensity (a.u.). For “TCGTAGACGAGGTGGAGGTGCGGCCACGATCGACGGGAGCCGGAGTCACCTAGTGCAG”, the binding signal was 3180 fluorescence intensity (a.u.). With “TCTGGCGACCTCGCTGTCATCGTCGCCGCCGCGGTTCCCCCGGAGTCACCTAGTGCAG” the binding signal was 4280 fluorescence intensity (a.u.). For “TTATAATATATATAATAAATAAATGTATGTTTACTTATAGCGGAGTCACCTAGTGCAG”, the binding signal was 19300 fluorescence intensity (a.u.). For “ACGGACGCTAACTTGCACGGGACGTGGAGGCGGATCTCCGCGGAGTCACCTAGTGCAG”, the binding signal was 3760 fluorescence intensity (a.u.). For “AGCTGAAGGCCCTCATGACGTGCCTCCATCAGGTATAGATCGGAGTCACCTAGTGCAG”, the binding signal was 5220 fluorescence intensity (a.u.). With “TTTGTCTATAAATTTAGTCAAACTTGAAACAATTTGATTTCGGAGTCACCTAGTGCAG” the binding signal was 14600 fluorescence intensity (a.u.). “ATAAACCAACAATCGTCTTCCTGTCATCAAGCTGTGTCCTCGGAGTCACCTAGTGCAG” was tested, and the binding signal was 3510 fluorescence intensity (a.u.). “TATTTGGTCGTCGCTGGTTGTTTGTAGCACGCCAGCTCCACGGAGTCACCTAGTGCAG” was tested, and the binding signal was 3750 fluorescence intensity (a.u.). “GATCGAGGCAGCGGGCGCAACGTGGCGCGCGCTTTGCTTGCGGAGTCACCTAGTGCAG” was tested, and the binding signal was 7690 fluorescence intensity (a.u.). For “ATGGTGTTGTCTTGTACAGTCCATCACATGGTATTTGATGCGGAGTCACCTAGTGCAG”, the binding signal was 4130 fluorescence intensity (a.u.). With “GCCGTGATGAAGTGATTGGGTGGCTGCAACAGCTAAAATGCGGAGTCACCTAGTGCAG” the binding signal was 18600 fluorescence intensity (a.u.). For “TAGTGAAGTCAGAACATAAATATAGGGCACTATCAGCATACGGAGTCACCTAGTGCAG”, the binding signal was 3580 fluorescence intensity (a.u.). In the case of “GTGGGCTGTTTCCACGTCGTCCGTTTCTGGGCCGCACGTGCGGAGTCACCTAGTGCAG”, the binding signal is reported as 6770 fluorescence intensity (a.u.). “TTCTAATTCACGGATATTGCTGCTACTGTGCCACGTGGCGCGGAGTCACCTAGTGCAG” was tested, and the binding signal was 18200 fluorescence intensity (a.u.). “GCAGTAGACACGACGTACTTGTCAATGGTGAGGCATTTATCGGAGTCACCTAGTGCAG” was tested, and the binding signal was 3350 fluorescence intensity (a.u.). “TGAGTGATTTTATGCATTTGATACCATGGTGCCCATATATCGGAGTCACCTAGTGCAG” was tested, and the binding signal was 31900 fluorescence intensity (a.u.). With “CTAAGGGTATTCCCAACCCAATGACTAGGATTGTGTCTATCGGAGTCACCTAGTGCAG” the binding signal was 6910 fluorescence intensity (a.u.).
